The values that follow come from paper PMC5339705.

By UniProt entry, the sequences of proteins in these tests, tags left out.
UniProt O15527, whole entry: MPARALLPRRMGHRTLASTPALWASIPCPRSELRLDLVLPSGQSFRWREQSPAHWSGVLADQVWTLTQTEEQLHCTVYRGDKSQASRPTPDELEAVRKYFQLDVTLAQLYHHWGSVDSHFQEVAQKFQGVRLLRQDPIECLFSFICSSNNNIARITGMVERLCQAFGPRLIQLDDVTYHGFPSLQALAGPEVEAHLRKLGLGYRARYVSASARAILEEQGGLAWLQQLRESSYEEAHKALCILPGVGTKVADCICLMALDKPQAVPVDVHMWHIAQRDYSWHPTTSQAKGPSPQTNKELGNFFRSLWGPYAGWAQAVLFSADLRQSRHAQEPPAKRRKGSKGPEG
UniProt Q04206, whole entry: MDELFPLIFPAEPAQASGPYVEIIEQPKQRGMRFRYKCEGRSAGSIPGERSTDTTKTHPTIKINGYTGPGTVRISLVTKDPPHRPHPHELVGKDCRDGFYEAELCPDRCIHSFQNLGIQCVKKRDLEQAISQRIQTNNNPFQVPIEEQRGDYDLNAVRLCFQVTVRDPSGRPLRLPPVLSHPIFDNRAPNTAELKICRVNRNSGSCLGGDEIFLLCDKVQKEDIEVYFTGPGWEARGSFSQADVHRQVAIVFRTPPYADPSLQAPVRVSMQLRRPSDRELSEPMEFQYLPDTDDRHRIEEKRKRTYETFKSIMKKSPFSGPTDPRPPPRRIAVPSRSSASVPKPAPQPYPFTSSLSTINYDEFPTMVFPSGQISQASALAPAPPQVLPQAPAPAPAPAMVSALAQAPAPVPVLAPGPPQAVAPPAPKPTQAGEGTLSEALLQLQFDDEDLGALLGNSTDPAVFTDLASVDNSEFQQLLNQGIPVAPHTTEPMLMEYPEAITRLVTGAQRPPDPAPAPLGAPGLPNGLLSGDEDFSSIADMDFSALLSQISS

Assay in all cases: EMSA
On the technique in general: In EMSA bound probe runs differently from free probe, usually more slowly.

Data set [1] concerns the target T1, p50 (NF-kB1) (UniProt P19838).
T1 sequence (looked up, limits assumed): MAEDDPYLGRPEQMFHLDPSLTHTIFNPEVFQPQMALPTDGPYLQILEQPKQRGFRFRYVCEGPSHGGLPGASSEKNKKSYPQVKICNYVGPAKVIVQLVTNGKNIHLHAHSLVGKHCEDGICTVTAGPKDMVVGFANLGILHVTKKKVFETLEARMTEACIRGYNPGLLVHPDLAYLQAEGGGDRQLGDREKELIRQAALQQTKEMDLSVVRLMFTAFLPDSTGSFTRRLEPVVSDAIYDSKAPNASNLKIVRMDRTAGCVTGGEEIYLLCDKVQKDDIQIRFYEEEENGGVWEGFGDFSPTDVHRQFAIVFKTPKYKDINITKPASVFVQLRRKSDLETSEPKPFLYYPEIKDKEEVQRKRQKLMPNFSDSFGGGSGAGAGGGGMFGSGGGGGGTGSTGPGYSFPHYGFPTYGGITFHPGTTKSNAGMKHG
The settings on record: homodimer in p65/p50 mix, 10 mM Tris-HCl pH 8.0, 5 mM NaCl, 1 mM EDTA, 1 mM DTT, 0.1 mg/ml BSA, 0.1 µg/µl poly(dI-dC) (stated for NE reactions), 10 fmol probe, 10 µl, RT 5-10 min, commercial protein, label: 5' biotin on strand 2.

In data set [2] the test system is p65 (RelA) + p50 (NF-kB1). To be noted: 10 mM Tris-HCl pH 8.0, 5 mM NaCl, 1 mM EDTA, 1 mM DTT, 0.1 mg/ml BSA, 0.1 µg/µl poly(dI-dC) (stated for NE reactions), 10 fmol probe, 10 µl, RT 5-10 min, commercial protein, label: 5' biotin on strand 2.
In data set [3] the target is OGG1 (UniProt O15527). The settings on record: shift only with higher OGG1 amounts (data not shown), 10 mM Tris-HCl pH 8.0, 5 mM NaCl, 1 mM EDTA, 1 mM DTT, 0.1 mg/ml BSA, 0.1 µg/µl poly(dI-dC) (stated for NE reactions), 10 fmol probe, 10 µl, RT 5-10 min, commercial protein, label: 5' biotin on strand 2.
The target in data set [4] is p65 (RelA) (UniProt Q04206). The settings on record: p65 alone, shift only at 15 ng/sample; 8-oxoG at strand 2 position 23 (opposite C11 of strand 1); 10 mM Tris-HCl pH 8.0, 5 mM NaCl, 1 mM EDTA, 1 mM DTT, 0.1 mg/ml BSA, 0.1 µg/µl poly(dI-dC) (stated for NE reactions), 10 fmol probe, 10 µl, RT 5-10 min; commercial protein; label: 5' biotin on strand 2.
Where [5] appears, read: no OGG1, 8-oxoG at strand 1 position 22.

The exact form of at least one protein or probe is not confirmed. For some of these results: Weaker means in comparison with the reference protein, sequence or condition of that experiment. For some of these results: At least one verdict was read from the data and is not stated in words by the source. For some of these results: Protein sequences can lack the tags named with them.

Regarding “TGAGGGGACCCTGAGCTCAGGGAATTTCCCTGG (double strand) [κB2-G1]”, the binding result is given as “binds” in data set [1] (no OGG1, 8-oxoG at strand 1 position 20) and “binds” in data set [2] (with OGG1 4 ng, stronger than NF-kB alone, 8-oxoG at strand 1 position 20).
For “TGAGGGGACCCTGAGCTCAGGGAATTTCCCTGG (double strand) [κB2-G2]”, the binding result in data set [1] (setting [5]) is “binds”; in data set [2] (setting [5]) it was “binds more weakly”; in data set [2] (with OGG1 4 ng, decreased vs Wt, 8-oxoG at strand 1 position 22), “binds more weakly”.
Turning to “TGAGGGGACCCTGAGCTCAGGGAATTTCCCTGG (double strand) [κB2-G3]”, the binding result in data set [1] (no OGG1, 8-oxoG at strand 1 position 4 (number label read as following the base)) is reported as “binds”; in data set [3] (8-oxoG at strand 1 position 4 (number label read as following the base)) it was “binds more weakly”.
For “TGAGGGGACCCTGAGCTCAGGGAATTTCCCTGG (double strand) [κB2-G4]”, the binding result was “binds” in data set [1] (no OGG1, 8-oxoG at strand 1 position 7) and “binds more weakly” in data set [3] (8-oxoG at strand 1 position 7).
“TGAGGGGACCCTGAGCTCAGGGAATTTCCCTGG (double strand) [κB2-G5]”: the binding result in data set [1] (no OGG1, 8-oxoG at strand 2 position 4 (opposite C30 of strand 1)) is given as “binds”; in data set [2] (with OGG1 4 ng, stronger than NF-kB alone, 8-oxoG at strand 2 position 4 (opposite C30 of strand 1)), “binds”; in data set [3] (8-oxoG at strand 2 position 4 (opposite C30 of strand 1)), “binds more weakly”.
In the case of “TGAGGGGACCCTGAGCTCAGGGAATTTCCCTGG (double strand) [κB2-G6]”, the binding result in data set [4] is recorded as “binds more weakly”.
As for “TGAGGGGACCCTGAGCTCAGGGAATTTCCCTGG (double strand) [κB2-Wt]”, the binding result in data set [2] (with OGG1 4 ng, stronger than NF-kB alone) is “binds”.
“TTCCCTGGTCCCCGGGCTTTTCCAGACATCG (double strand) [κB1-G1]”: the binding result is on record as “binds” in data set [1] (increased by OGG1, 8-oxoG at strand 1 position 14) and “binds” in data set [2] (no OGG1, increased by OGG1, 8-oxoG at strand 1 position 14).
Turning to “TTCCCTGGTCCCCGGGCTTTTCCAGACATCG (double strand) [κB1-G2]”, the binding result in data set [1] (increased by OGG1, 8-oxoG at strand 2 position 19 (opposite C13 of strand 1)) was “binds”; in data set [2] (no OGG1, increased by OGG1, 8-oxoG at strand 2 position 19 (opposite C13 of strand 1)), “binds”.
Take “TTCCCTGGTCCCCGGGCTTTTCCAGACATCG (double strand) [κB1-G3]”: the binding result is recorded as “binds” in data set [1] (increased by OGG1, 8-oxoG at strand 2 position 27 (opposite C5 of strand 1)) and “binds” in data set [2] (no OGG1, 8-oxoG at strand 2 position 27 (opposite C5 of strand 1)).
Regarding “TTCCCTGGTCCCCGGGCTTTTCCAGACATCG (double strand) [κB1-Wt]”, the binding result in data set [1] (increased by OGG1) is reported as “binds”; in data set [2] (no OGG1, increased by OGG1), “binds”.
